System: U2OS cells
Assay: Cell viability (ATP) of unmodified U2OS cells, parallel to reporter assay
Type: cell-based
Details: Homo sapiens
Experimental: To separate the antagonist activity of test compounds from the cytotoxic effect on U2OS cells (cell line derived from osteosarcoma), an experiment for determination of cell viability was performed in parallel with the reporter assay. Original, genetically unmodified U2OS cells were grown under the same conditions as the reporter cells. These cells were further treated and incubated with the compounds in a completely identical manner and for the same time as cells in the reporter assay. At the end of the experiment, the amount of ATP was determined using BriteLite luciferase homogeneous assay as a measure of cell viability. The data were then processed together with data from the reporter assays.

CNC(=O)c1ccc(N2C(=S)N(c3ccc(C#N)c(C(F)(F)F)c3)C(=O)C2(C)C)cc1F [Enzalutamide]
IC50: 89.4 µM

From US10759826B2, “15β-substituted estrone derivatives as selective inhibitors of 17β-hydroxysteroid-dehydrogenases, method of preparation and use thereof” (USTAV ORGANICKE CHEMIE A BIOCHEMIE AV CR, V.V.I., priority 2016, dated 2020)
